This assay deals with T1, Pisum sativum agglutinin (PSA) of Comparison Example 4 (Pisum sativum) (UniProt P02867).
T1 sequence (looked up): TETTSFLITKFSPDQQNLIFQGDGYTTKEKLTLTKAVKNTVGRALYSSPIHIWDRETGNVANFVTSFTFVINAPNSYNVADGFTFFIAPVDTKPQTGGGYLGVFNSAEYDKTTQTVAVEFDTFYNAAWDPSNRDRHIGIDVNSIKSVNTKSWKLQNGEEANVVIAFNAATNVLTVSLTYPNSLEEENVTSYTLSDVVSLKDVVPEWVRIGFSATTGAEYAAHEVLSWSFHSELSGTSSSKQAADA
As to the kind of experiment: hemagglutination inhibition; glycoprotein titrated against lectin at titer 4.

Chains of the proteins cited; added tags and fusions are not shown. Residues count along the entry.
UniProt P02769, residues 25-607: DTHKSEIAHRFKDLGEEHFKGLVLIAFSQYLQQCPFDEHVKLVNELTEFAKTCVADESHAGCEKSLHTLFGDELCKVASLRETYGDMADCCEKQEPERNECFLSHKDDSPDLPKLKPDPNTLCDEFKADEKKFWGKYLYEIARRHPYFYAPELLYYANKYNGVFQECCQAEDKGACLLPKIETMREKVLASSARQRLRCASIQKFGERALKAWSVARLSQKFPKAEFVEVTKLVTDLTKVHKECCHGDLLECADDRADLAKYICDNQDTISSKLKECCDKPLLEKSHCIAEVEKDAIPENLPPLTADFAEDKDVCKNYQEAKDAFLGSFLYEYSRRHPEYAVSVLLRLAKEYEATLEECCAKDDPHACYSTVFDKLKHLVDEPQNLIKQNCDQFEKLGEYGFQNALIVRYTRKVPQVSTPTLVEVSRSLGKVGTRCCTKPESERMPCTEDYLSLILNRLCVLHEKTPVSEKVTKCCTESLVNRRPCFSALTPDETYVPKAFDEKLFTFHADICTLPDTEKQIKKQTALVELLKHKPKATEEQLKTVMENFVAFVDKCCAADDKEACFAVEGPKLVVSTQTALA

Results are given in words; binding and its absence hold for the method and conditions named.

“Bovine serum albumin (from UniProt P02769 25-607)”: the binding entry is on record as “no binding (tested: 250 µl/ml)”.
